Data as given in PubChem BioAssay AID1259266 (Sanger Institute, 2017).
This is an unselected part of 794 deposited reagents. 16 of all reagents (2%) count as active. 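Calls reflect knock-down alone, not drug synergy; viability seems capped at 1 and z-scores at 0.585.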 Not given: the amount of reagent, the time to read-out.

- Assay: 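Essential genes and drug synergy among kinases and colorectal-mutated genes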 (primary screen)
- Cell system: LS123 human colorectal cancer cells
- Reagents: siRNA pool against human genes
- Treatment: anchor drugs BYL719 (1 µM), cetuximab (5 µg/ml) or trametinib (10 nM), each chosen to barely slow growth alone; DMSO vehicle as the drug-free arm
- Read-out: 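Replicate-averaged viability scaled to non-targeting pools, robust z-score for siRNA alone, and a synergy score per anchor drug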
- Direction: robust z-score, knock-down alone: higher = more cells surviving after knock-down; viability, knock-down alone: higher = more viable cells; synergy score with trametinib and synergy score with BYL719 and synergy score with cetuximab: higher = stronger synthetic lethality with drug
- Hit rule: 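a knock-down counts as essential if its z-score without drug is under -3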
- Calls: active = essential (knock-down alone cuts viability); inactive = no change

The opening 4 records, ahead of the listing:
robust z-score, knock-down alone	viability, knock-down alone (fraction of control)	synergy score with trametinib	synergy score with BYL719	synergy score with cetuximab	call	Gene	PubChem SID
0.585	1	-0.146	-0.108	-0.0122	inactive	NME4	SID56479075
-0.671	0.925	-0.11	-0.0669	-0.0859	inactive	MAP2K7	SID56478752
-0.994	0.906	-0.0228	-0.0768	-0.0418	inactive	TEX14	SID152148327
0.585	1	-0.0985	-0.152	-0.0122	inactive	PRKX	SID152149946

The listing, from the start:
robust z-score, knock-down alone	viability, knock-down alone (fraction of control)	synergy score with trametinib	synergy score with BYL719	synergy score with cetuximab	call	Gene	PubChem SID
0.585	1	-0.146	-0.108	-0.0122	inactive	NME4	SID56479075
-0.671	0.925	-0.11	-0.0669	-0.0859	inactive	MAP2K7	SID56478752
-0.994	0.906	-0.0228	-0.0768	-0.0418	inactive	TEX14	SID152148327
0.585	1	-0.0985	-0.152	-0.0122	inactive	PRKX	SID152149946
0.585	1	-0.0328	-0.0336	-0.0122	inactive	NF1	SID152155944
0.585	1	-0.165	-0.159	-0.0122	inactive	MECOM	SID135621208
-3.28	0.77	-0.0561	-0.128	0.000222	active	POLR2B	SID134315545
0.585	1	-0.0937	-0.145	-0.0122	inactive	CDK7	SID152150057
0.317	0.984	-0.0558	0.0278	-0.000133	inactive	FGFRL1	SID135622448
0.585	1	-0.0671	-0.139	-0.0122	inactive	DBF4	SID135620786
0.557	0.998	-0.0159	-0.084	0.0689	inactive	AKT1	SID135620599
0.484	0.994	0.0595	-0.047	0.0476	inactive	TWF2	SID56478547
0.585	1	-0.125	-0.159	-0.0122	inactive	SRPK3	SID135620894
0.585	1	-0.0159	-0.05	0.0975	inactive	FLT4	SID152148537
-0.052	0.962	-0.0492	-0.0528	0.041	inactive	RIPK3	SID152154350
0.585	1	-0.142	-0.159	-0.0122	inactive	CRIM1	SID134313362
0.585	1	-0.124	-0.144	-0.0122	inactive	ALPK2	SID152151764
0.585	1	-0.0277	-0.0761	-0.0122	inactive	CAMK2B	SID135620913
-0.0892	0.96	-0.0642	-0.142	-0.0518	inactive	TNIK	SID152153870
-1.07	0.902	-0.0133	-0.111	0.0603	inactive	YES1	SID152156078
-0.303	0.947	-0.0985	-0.0993	-0.0643	inactive	AK4	SID152149659
0.585	1	-0.125	-0.134	-0.0122	inactive	POMK	SID56479008
-0.754	0.92	-0.127	-0.2	-0.0908	inactive	KDR	SID56478526
0.585	1	-0.0833	-0.084	-0.0122	inactive	PANK2	SID152147442
0.585	1	-0.0977	-0.159	-0.0122	inactive	GUCY2F	SID152150427
0.118	0.972	-0.0233	0.017	0.0805	inactive	IKBKG	SID152147833
0.585	1	-0.033	-0.0831	-0.0122	inactive	HIPK2	SID56478619
0.585	1	-0.16	-0.159	-0.0122	inactive	CAMK2D	SID56478759
0.585	1	-0.122	-0.159	-0.0122	inactive	IKBKE	SID56478721
-0.331	0.946	-0.0738	-0.14	-0.0438	inactive	PIP5K1B	SID152154468
0.0699	0.969	0.00703	0.0369	0.211	inactive	EEF2K	SID152154873
0.585	1	-0.175	-0.159	-0.0122	inactive	SCYL1	SID152146872
0.585	1	-0.111	-0.0657	-0.0122	inactive	TBX3	SID134316486
0.585	1	-0.0176	0.0298	0.122	inactive	PRKG2	SID56478832
